Data taken from doi:10.1101/2021.12.08.471779.
Positions count from the first letter of the chain named. Results are given in words; binding and its absence hold for the method and conditions named. Binding seen in cells or lysates may run through a third protein. Some binding calls cover weakened binding; strength is not graded here.

Amino acid sequences for entries named in this document (tags omitted). A change or cut given only in a name is not applied to a line headed by its entry.
UniProt P05825, whole entry, looked up, stated change not applied: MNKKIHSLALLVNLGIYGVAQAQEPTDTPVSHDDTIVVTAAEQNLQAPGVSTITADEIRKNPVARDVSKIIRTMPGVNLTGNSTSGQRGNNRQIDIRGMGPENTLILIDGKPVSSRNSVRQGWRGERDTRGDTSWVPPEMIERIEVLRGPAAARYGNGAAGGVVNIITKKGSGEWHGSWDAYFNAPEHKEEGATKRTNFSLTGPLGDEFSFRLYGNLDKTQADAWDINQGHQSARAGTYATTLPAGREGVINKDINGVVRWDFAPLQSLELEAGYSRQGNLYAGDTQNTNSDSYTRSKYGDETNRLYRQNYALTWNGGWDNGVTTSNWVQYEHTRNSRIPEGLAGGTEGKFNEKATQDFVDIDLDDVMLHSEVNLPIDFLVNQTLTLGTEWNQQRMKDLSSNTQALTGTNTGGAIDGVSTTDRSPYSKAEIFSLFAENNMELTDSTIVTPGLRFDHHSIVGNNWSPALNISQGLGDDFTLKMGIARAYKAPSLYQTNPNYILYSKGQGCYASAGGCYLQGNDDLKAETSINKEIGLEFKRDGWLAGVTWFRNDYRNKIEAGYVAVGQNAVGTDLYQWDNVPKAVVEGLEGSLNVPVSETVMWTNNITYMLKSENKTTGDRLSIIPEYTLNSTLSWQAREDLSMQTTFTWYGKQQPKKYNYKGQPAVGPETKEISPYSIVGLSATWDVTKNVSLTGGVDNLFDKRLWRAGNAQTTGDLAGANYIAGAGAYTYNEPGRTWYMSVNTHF
UniProt P02929, whole entry, looked up, stated change not applied: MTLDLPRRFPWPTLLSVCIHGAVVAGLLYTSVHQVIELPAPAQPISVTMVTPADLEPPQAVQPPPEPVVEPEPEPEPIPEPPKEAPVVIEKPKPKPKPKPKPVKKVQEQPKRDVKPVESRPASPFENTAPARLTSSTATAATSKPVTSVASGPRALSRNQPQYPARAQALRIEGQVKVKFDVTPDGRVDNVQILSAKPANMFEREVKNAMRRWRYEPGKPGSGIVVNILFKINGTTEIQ

Experiments:
Assay in all cases: cross-linking
[1] = biological target: T1, FepA D12C (Escherichia coli K-12) (UniProt P05825)
T1 sequence: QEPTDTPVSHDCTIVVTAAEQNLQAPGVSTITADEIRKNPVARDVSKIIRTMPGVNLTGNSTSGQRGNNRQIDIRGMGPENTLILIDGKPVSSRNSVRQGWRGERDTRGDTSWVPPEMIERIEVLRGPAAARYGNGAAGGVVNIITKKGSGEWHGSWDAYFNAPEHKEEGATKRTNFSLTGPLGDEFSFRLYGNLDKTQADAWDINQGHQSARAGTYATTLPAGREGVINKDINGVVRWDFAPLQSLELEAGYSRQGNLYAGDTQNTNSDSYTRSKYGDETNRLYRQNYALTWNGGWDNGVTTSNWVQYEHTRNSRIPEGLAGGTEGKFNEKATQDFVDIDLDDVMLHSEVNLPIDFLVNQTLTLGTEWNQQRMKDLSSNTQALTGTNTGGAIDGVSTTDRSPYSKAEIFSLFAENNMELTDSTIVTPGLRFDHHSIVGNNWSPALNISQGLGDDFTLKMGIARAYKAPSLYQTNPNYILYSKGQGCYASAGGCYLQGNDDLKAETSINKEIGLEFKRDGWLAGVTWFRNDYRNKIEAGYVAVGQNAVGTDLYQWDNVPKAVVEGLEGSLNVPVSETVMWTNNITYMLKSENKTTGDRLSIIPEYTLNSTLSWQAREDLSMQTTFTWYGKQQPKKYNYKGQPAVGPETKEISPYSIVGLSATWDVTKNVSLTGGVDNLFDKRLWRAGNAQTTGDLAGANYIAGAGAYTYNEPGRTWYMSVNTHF

[2] = biological target: T2, FepA P243C (Escherichia coli K-12) (UniProt P05825)
T2 sequence: T1 sequence with C12D, P243C

[3] = biological target: T3, FepA E567C (Escherichia coli K-12) (UniProt P05825)
T3 sequence: T1 sequence with C12D, E567C

Row | binding [1] | binding [2] | binding [3] | Substance
1 |  | no binding | no binding | TonB C18G Q160C (from UniProt P02929 1-239)
2 | no binding | no binding | no binding | TonB C18G A209C (from UniProt P02929 1-239)
3 |  |  | no binding | TonB C18G R214C (from UniProt P02929 1-239)
4 | binds | binds | no binding | TonB C18G R212C (from UniProt P02929 1-239)
5 | no binding | no binding | no binding | TonB C18G V206C (from UniProt P02929 1-239)
6 |  |  | no binding | TonB C18G M201C (from UniProt P02929 1-239)
7 | no binding |  |  | TonB C18G H20A V206C (from UniProt P02929 1-239)

More lines, now with the values behind:

Row | Substance | binding [1] | binding [2] | binding [3]
8 | TonB C18G H20A R212C (from UniProt P02929 1-239) | no binding |  | 
9 | TonB C18G H20A R204C (from UniProt P02929 1-239) | no binding | binds | 
10 | TonB C18G H20A A209C (from UniProt P02929 1-239) | no binding |  | 
11 | TonB C18G H20A N208C (from UniProt P02929 1-239) | no binding |  | 
12 | TonB C18G N208C (from UniProt P02929 1-239) | binds | binds weakly | no binding
13 | TonB C18G R204C (from UniProt P02929 1-239) | binds | binds | no binding
